# In PubChem BioAssay AID540276 (National Center for Advancing Translational Sciences (NCATS), 2011):
# The whole screen tested about 300,000 compounds, of which about 5,400 (1.8%) were called active. Inconclusive results, whose numbers are uncertain, are shown with a selection of clear calls. The call rests on the fitted dose curve; tested in HEK293 cells. A potency beside an inconclusive call is a rough fit, not a confirmed value.
# Test: qHTS for inhibitors of binding or entry into cells for Marburg Virus
# Conditions: Marburg virus pseudotyped entry inhibition, cell reporter; activity change, negative = inhibition: at 37.8 µM (top of the series) unless noted
# On the % scale 0 is the no-effect control and ±100 the full control effect; potency means the concentration at half of the fitted maximal effect.
SMILES,"activity change, negative = inhibition",Potency
CN1C(=O)CC2(CC(=O)N(Cc3ccccc3)C2)C1=O (stereo unspecified),inactive: -16.8% [at 46.1 µM],–
Cc1nnc(SCC(=O)c2c(N)n(C)c(=O)n(C)c2=O)[nH]c1=O,–,"inconclusive: 28.2 µM [activator, single point]"
O=C(C(F)C(F)(F)F)N1CCN(c2ccccc2)CC1 (stereo unspecified),–,"inconclusive: 16.4 µM [activator, partial curve, poor fit]"
CN=C(SCC(=O)c1cccc(Cl)c1)c1c(O)n(C)c(=O)n(C)c1=O,–,"inconclusive: 3.16 µM [activator, partial curve, poor fit]"
C/C(CC(=O)Nc1ccc(N(C)C)cc1)=N\NC(=O)c1cnccn1,–,"inconclusive: 6.31 µM [activator, partial curve, poor fit]"
CCCc1nnc(SCC(=O)Nc2ccc(OC)cc2)o1,–,"inconclusive: 20 µM [inhibitor, partial curve, poor fit]"
CCn1c(=O)c(C(=O)NCCN2CCCCC2)c(O)c2ccccc21,–,"inconclusive: 25.9 µM [inhibitor, single point]"
COCCn1c(C)cc(C(=O)COC(=O)c2cccnc2SC)c1C,–,"inconclusive: 35.5 µM [inhibitor, single point]"
CCC(=O)Oc1ccc(C(=O)Nc2ccc3c(c2)C(=O)N(C2CCCCC2)C3=O)cc1,–,"inconclusive: 16.4 µM [inhibitor, single point]"
O=C(COc1cccc(C(F)(F)F)c1)Nc1ccc(S(=O)(=O)N2CCCC2)cc1,inactive: -16.9%,–
COc1ccccc1OCCNC(=O)C(CCSC)NS(=O)(=O)c1ccccc1F (stereo unspecified),–,"inconclusive: 6.31 µM [inhibitor, single point]"
O=C(O)CSc1ncnc2sc(-c3ccccc3)cc12,–,"inconclusive: 39.8 µM [activator, single point]"
O=C(Nc1ccc2c(c1)OCCO2)c1cccc(Cl)c1,–,"inconclusive: 35.5 µM [inhibitor, single point]"
Cc1ccccc1CN1C[C@@H]2C[C@@H](c3cn[nH]c3-c3ccccc3)N3CCC[C@@]23C1=O,–,"inconclusive: 35.5 µM [inhibitor, single point]"
Cc1ccccc1-c1ccc(=O)n(CC(=O)Nc2ccc(S(=O)(=O)N(C)C)cc2)n1,–,"inconclusive: 7.08 µM [activator, full curve, poor fit]"
O=C(Nc1ccc([N+](=O)[O-])cc1)Nc1ccc(Cl)cc1F,–,"inconclusive: 2.24 µM [inhibitor, partial curve, poor fit]"
O=C(NCC1CCN(Cc2ccccc2F)CC1)Nc1ccc(F)c(Cl)c1,–,"inconclusive: 35.5 µM [inhibitor, single point]"
CCOC(=O)C1CCN(C(=O)c2c(C)oc3c2C(=O)c2ccccc2C3=O)CC1,inactive: -36.3%,–
CCOC(=O)c1ccc(NC(=O)CC(=O)Nc2ccc3nc4n(c(=O)c3c2)CCCCC4)cc1,inactive: 1.47% [at 46.1 µM],–
Cc1ccc(-c2csc(NC(=O)c3ccco3)n2)cc1C,–,"inconclusive: 5.62 µM [inhibitor, single point]"
Cc1cc(NC(=O)c2cc(-c3ccc4c(c3)OCO4)on2)n(-c2ccccc2)n1,–,"inconclusive: 29.1 µM [inhibitor, single point]"
COc1ccc(CNC(=O)COC(=O)Cc2ccc(Br)cc2)cc1,–,"inconclusive: 14.1 µM [activator, partial curve, poor fit]"

SMILES,"activity change, negative = inhibition",Potency
Cc1ccccc1OCC(=O)Nc1nnc(COc2ccccc2)s1,inactive: -5.92%,–
CC(NCC(=O)Nc1ccccc1C(=O)NC1CC1)c1cccc(Cl)c1 (stereo unspecified),–,"inconclusive: 0.794 µM [activator, single point]"
COc1ccc(CCNC(=S)NC(=O)c2ccccc2)cc1C,–,"inconclusive: 1.58 µM [activator, partial curve, poor fit]"
COc1ccccc1C(=O)Nc1nnc(S(=O)(=O)N2CCC(C)CC2)s1,inactive: 28.4% [at 46.1 µM],–
COc1cc(C(=S)N2CCOCC2)cc(OC)c1OC(=O)c1ccccc1[N+](=O)[O-],inactive: 14% [at 46.1 µM],–
Cc1ccc2c(Cl)cc(Cl)c(OCC(=O)Nc3cccc(S(=O)(=O)N(C)C)c3)c2n1,inactive: 0.375%,–
Cc1ccccc1NC(=O)/C(C#N)=C/c1ccc(Cl)cc1Cl,inactive: -15.4% [at 46.1 µM],–
N#CCSc1nc2ccc(N3CCCCC3)cc2c(=O)n1Cc1ccccc1,–,inactive
COC(=O)c1cccc(NC(=O)CSc2nnc(-c3ccco3)o2)c1,–,"inconclusive: 11.2 µM [activator, single point]"
Cc1nn(C)cc1S(=O)(=O)N1CCN(c2ccccc2)CC1,–,"inconclusive: 22.4 µM [inhibitor, single point]"
O=C(CSc1n[nH]c(-c2cc(Cl)ccc2Cl)n1)NCCN1C(=O)CSC1=O,–,"inconclusive: 0.794 µM [activator, full curve, poor fit]"
CCCOc1ccc(C(C)=O)cc1Cc1c(O)nc(SC)[nH]c1=O,–,"inconclusive: 1.12 µM [inhibitor, partial curve, poor fit]"
CCOc1ccc(NC(=S)NC(=O)/C=C/c2ccco2)cc1,–,"inconclusive: 15.8 µM [inhibitor, single point]"
CC(=O)NC1=C(C#N)C(c2ccccc2)c2c(ccc3ccccc23)O1 (stereo unspecified),–,active: 10 µM
CCCCc1ccc(NC(=S)NCc2cccc(OC)c2)cc1,–,"inconclusive: 35.5 µM [inhibitor, single point]"
Cc1cc(C(=O)Nc2cccc([N+](=O)[O-])c2)c(C)o1,–,"inconclusive: 5.62 µM [activator, single point]"
N#C/C(=N\Nc1ccc(S(=O)(=O)N2CCCCCC2)cc1)C(N)=S,–,"inconclusive: 11.2 µM [inhibitor, partial curve, poor fit]"
Cc1cc(C)n(-c2nc3ccccc3nc2N2CCN(C(=O)c3ccc(Cl)cc3)CC2)n1,–,"inconclusive: 25.9 µM [inhibitor, single point]"
Cc1c(F)cccc1NC(=O)c1ccc2c(c1)CCN2S(C)(=O)=O,–,"inconclusive: 35.5 µM [activator, single point]"
Cc1cc(-c2ccccc2)nc2oc(C(=O)NN)c(N)c12,–,"inconclusive: 2.24 µM [activator, partial curve, poor fit]"
O=C(Nc1ncccn1)c1ccc([N+](=O)[O-])o1,–,"inconclusive: 6.31 µM [activator, single point]"
O=C(c1cn(-c2ccccc2)nc1-c1cccs1)N1CCN(c2ccc(F)cc2)CC1,–,"inconclusive: 35.5 µM [inhibitor, single point]"

SMILES,"activity change, negative = inhibition",Potency
CCOc1cc(/C=C(/C#N)C(=O)Nc2ccc(O)cc2)cc(Br)c1O,–,"inconclusive: 0.251 µM [inhibitor, full curve, poor fit]"
COc1ccc(NC(=O)CCn2nc(C)cc2C)cc1,inactive: 28.2%,–
CC(C)CNC(=O)COC(=O)CNC(=O)c1cc(Cl)cc([N+](=O)[O-])c1,inactive: 7.46%,–
Cc1cc(N2CCN(S(=O)(=O)c3ccc(C)c(C)c3)CC2)c2ccccc2n1,–,active: 16.4 µM
COc1cccc(OC)c1C(=O)Nc1ccc(N2CCCCC2)cc1,–,"inconclusive: 12.6 µM [inhibitor, partial curve, poor fit]"
Cc1cccc(NC(=S)Nc2cccc(C)n2)n1,–,"inconclusive: 35.5 µM [activator, single point]"
COc1ccc(CCNC(=O)C(C)n2nc(C)c3sc4ccccc4c3c2=O)c(OC)c1 (stereo unspecified),–,"inconclusive: 31.6 µM [inhibitor, single point]"
Cc1ccc(S(=O)(=O)Nc2ccc3nc(-c4cccc(Cl)c4)oc3c2)cc1,inactive: 9.38% [at 46.1 µM],–
COc1ccccc1NC(=O)NC1(C(=O)NCC2CCCO2)CCCCC1 (stereo unspecified),inactive: 6.36% [at 46.1 µM],–
CCCn1c(SCC(=O)Nc2nc(-c3ccc(OC)cc3)cs2)nc2c1c(=O)n(C)c(=O)n2C,–,"inconclusive: 3.16 µM [inhibitor, partial curve, poor fit]"
O=C(CCCCCn1c(=O)c2sccc2n(Cc2ccccc2Cl)c1=O)NCc1ccc2c(c1)OCO2,inactive: -0.413% [at 46.1 µM],–
O=C(CCN1CCOCC1)N/N=C/c1cc(Br)cc(Br)c1O,–,"inconclusive: 3.55 µM [inhibitor, full curve, poor fit]"
Cc1cccc(C)c1NC(=O)CSc1nnc(-c2ccco2)c(-c2ccco2)n1,–,"inconclusive: 2.51 µM [inhibitor, partial curve, poor fit]"
COC(=O)c1sccc1NC(=O)Nc1ccc(F)cc1F,–,"inconclusive: 35.5 µM [activator, single point]"
O=C1C2C3c4ccccc4C(c4ccccc43)[C@@H]2c2nc3ccccc3n21 (stereo partly specified),–,"inconclusive: 15.8 µM [inhibitor, single point]"
O=C1N(c2ccccc2)C(=Nc2ccccc2)SC12CC2,–,"inconclusive: 15.8 µM [inhibitor, single point]"
COC(=O)CN1C(=S)N(c2ccc(OC)cc2)C(=O)/C1=C/c1cccs1,–,"inconclusive: 0.1 µM [activator, full curve, poor fit]"
O=C(COC(=O)c1ccccc1C(=O)c1ccc(Cl)cc1)NCCc1ccccc1,–,"inconclusive: 31.6 µM [inhibitor, partial curve, poor fit]"
C=CCN(CC=C)c1nc2ccccc2nc1C(C#N)C(=O)OC(C)C (stereo unspecified),–,"inconclusive: 0.251 µM [inhibitor, full curve, poor fit]"
COC(=O)c1ccc(NC(=O)CN2CCN(c3ccccc3C)CC2)cc1,–,"inconclusive: 3.66 µM [inhibitor, single point]"
CCOC(=O)N1CCN(C(=O)CS(=O)Cc2nc(-c3ccc(C)cc3)oc2C)CC1 (stereo unspecified),inactive: -4.68%,–
COCCn1nnnc1C(CC(C)C)N1CCN(c2ccccc2)CC1 (stereo unspecified),–,"inconclusive: 10 µM [inhibitor, partial curve]"

# A portion of the results above, for reference:
SMILES,"activity change, negative = inhibition",Potency
COc1cccc(OC)c1C(=O)Nc1ccc(N2CCCCC2)cc1,–,"inconclusive: 12.6 µM [inhibitor, partial curve, poor fit]"
Cc1cccc(NC(=S)Nc2cccc(C)n2)n1,–,"inconclusive: 35.5 µM [activator, single point]"
COc1ccc(CCNC(=O)C(C)n2nc(C)c3sc4ccccc4c3c2=O)c(OC)c1 (stereo unspecified),–,"inconclusive: 31.6 µM [inhibitor, single point]"
Cc1ccc(S(=O)(=O)Nc2ccc3nc(-c4cccc(Cl)c4)oc3c2)cc1,inactive: 9.38% [at 46.1 µM],–
